According to patent US20220306764A1:
No constants are given. Whether binding was seen depends on the method and setting. Some entries that bind do so weakly or less than the wild type.

Sequences of proteins named here, by UniProt entry; tags and fusion partners are left off. A change or cut given only in a name is not applied to a line headed by its entry. Residues count along the entry.
UniProt Q04609: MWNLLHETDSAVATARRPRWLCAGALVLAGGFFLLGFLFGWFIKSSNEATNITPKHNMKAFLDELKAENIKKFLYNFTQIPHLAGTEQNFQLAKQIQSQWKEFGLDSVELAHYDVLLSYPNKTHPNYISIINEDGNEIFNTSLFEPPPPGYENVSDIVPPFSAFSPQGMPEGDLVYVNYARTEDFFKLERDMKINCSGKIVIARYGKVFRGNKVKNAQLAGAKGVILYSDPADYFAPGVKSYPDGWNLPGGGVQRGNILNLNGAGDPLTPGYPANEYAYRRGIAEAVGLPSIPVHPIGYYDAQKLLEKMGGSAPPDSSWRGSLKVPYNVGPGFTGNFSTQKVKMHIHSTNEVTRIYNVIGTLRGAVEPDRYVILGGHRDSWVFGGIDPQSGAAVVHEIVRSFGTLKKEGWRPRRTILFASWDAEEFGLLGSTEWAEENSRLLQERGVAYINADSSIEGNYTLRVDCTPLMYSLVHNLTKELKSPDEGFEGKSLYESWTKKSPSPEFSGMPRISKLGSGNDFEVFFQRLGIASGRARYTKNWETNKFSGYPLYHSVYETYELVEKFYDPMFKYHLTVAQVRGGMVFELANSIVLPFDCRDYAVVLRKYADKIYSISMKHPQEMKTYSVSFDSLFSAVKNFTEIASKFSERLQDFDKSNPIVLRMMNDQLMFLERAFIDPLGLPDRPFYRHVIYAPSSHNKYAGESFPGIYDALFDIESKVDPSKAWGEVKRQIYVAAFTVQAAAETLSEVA
purified extracellular domain of PSMA (prostate-specific membrane antigen), residues 44-750: residues 44-750 of Q04609

Experiments:
[1] = target: PSMA on PC3-PIP (PSMA+) prostate cancer cells (UniProt Q04609); assay: FACS on PC3-PIP cells
[2] = target: PSMA on PC3-PIP (PSMA+) prostate cancer cells (UniProt Q04609); assay: confocal imaging, Dylight 650-labelled protein, 15 min
[3] = target: PSMA on PC3-PIP (PSMA+) prostate cancer cells (UniProt Q04609); assay: flow cytometry on PC3-PIP cells
[4] = target: PSMA on PC3-PIP (PSMA+) prostate cancer cells (UniProt Q04609); assay: confocal microscopy of live cells, NB7cys labelled with Dylight 650, 15 min incubation
[5] = target: PSMA on PC3-PIP (PSMA+) prostate cancer cells (UniProt Q04609); assay: flow cytometry on PC3-PIP cells, triplicate, means and SEM
[6] = target: PSMA on PC3-PIP (PSMA+) prostate cancer cells (UniProt Q04609); assay: FACS titration on PC3-PIP cells, anti-His-FITC detection
[7] = target: purified extracellular domain of PSMA (prostate-specific membrane antigen), residues 44-750 (UniProt Q04609); assay: ELISA of single bacterial colonies on PSMA, absorbance 450 nm, one point each, no control bar shown
[8] = target: PSMA on PC3-PIP (PSMA+) prostate cancer cells (UniProt Q04609); assay: FACS on PC3-PIP cells, figure legend
[9] = target: PSMA on PC3-PIP (PSMA+) prostate cancer cells (UniProt Q04609); assay: flow cytometry on PC3-PIP (PSMA+) cells, anti-His-FITC detection, n=3
[10] = target: purified extracellular domain of PSMA (prostate-specific membrane antigen), residues 44-750 (UniProt Q04609); assay: SPR
[11] = target: purified extracellular domain of PSMA (prostate-specific membrane antigen), residues 44-750 (UniProt Q04609); assay: SPR, figure legend
[12] = target: purified extracellular domain of PSMA (prostate-specific membrane antigen), residues 44-750 (UniProt Q04609); assay: SAXS, radius of gyration of PSMA (0.5 mg/ml) mixed with rising NB concentrations; the filing reads the shift of Rg as complex formation
[13] = target: purified extracellular domain of PSMA (prostate-specific membrane antigen), residues 44-750 (UniProt Q04609); assay: ELISA of bacterial colonies on PSMA, figure legend
[14] = target: PSMA on PC3-PIP (PSMA+) prostate cancer cells (UniProt Q04609); assay: confocal imaging of live PC3-PIP cells, Dylight 488-labelled NB, 100 nM
[15] = target: purified extracellular domain of PSMA (prostate-specific membrane antigen), residues 44-750 (UniProt Q04609); assay: SPR (ProteOn XPR36), NB8 immobilised, soluble PSMA as analyte at 2.94-47.00 nM, BSA-referenced, 25 C
[16] = target: purified extracellular domain of PSMA (prostate-specific membrane antigen), residues 44-750 (UniProt Q04609); assay: SAXS of PSMA mixed with NB
[17] = target: purified extracellular domain of PSMA (prostate-specific membrane antigen), residues 44-750 (UniProt Q04609); assay: ELISA of bacterial colonies on PSMA
[18] = target: purified extracellular domain of PSMA (prostate-specific membrane antigen), residues 44-750 (UniProt Q04609); assay: SPR (ProteOn XPR36), NB13 immobilised, soluble PSMA as analyte at 2.94-47.00 nM, BSA-referenced, 25 C
[19] = target: purified extracellular domain of PSMA (prostate-specific membrane antigen), residues 44-750 (UniProt Q04609); assay: SPR (ProteOn XPR36), NB37 immobilised, soluble PSMA as analyte at 2.94-47.00 nM, BSA-referenced, 25 C

Measured: binding

B1: NB7cys (NB7 with an added cysteine in the C-terminus) (VHH, not shown: small tags and cut ends)
VHH (part 1 of 2): QVQLQESGGGSVQAGGSLRLSCTAPGYTDSNYYMSWFRQAPGKEREWVAGVNTGRGSTSYADSVKGRFTISQDNAKNTMFLQMNSLKPEDTAIYYCAVAACHFCDSLPKTQDEYILWGQGTQVTVSSAAAYPYDVPDYGS
VHH (part 2 of 2): C
binds: [1] | [2] | [3] | [4] | [5]

B2: NB8 (VHH, not shown: small tags and cut ends)
VHH: QVQLQESGGGSVQAGGSLRLSCARSGWPYSTYSMNWFRQAPGKEREAVAGISSTMSGIIFAESKAGQFTISQDNAKNTVYLQMNNLKPEDTAIYYCAARRDYSLSSSSDDFDYWGQGTQVTVSS
binds: [6] | [7] | [8] | [9] | [10] | [11] | [12] | [13] | [14] | [15] | [16] | [17]

B3: NB13 (VHH, not shown: small tags and cut ends)
VHH: QVQLQESGGGSVQTGGSLRLSCAASGYTASFSWIGYFRQAPGKEREGVAVINVGVGSTYYADSVKGRFTISRDNTENTISLEMNSLKPEDTGLYYCAGSLRWSRPPNPISEDAYNYWGQGTQVTVSS
binds: [6] | [7] | [8] | [9] | [10] | [11] | [12] | [13] | [14] | [16] | [18] | [17]

B4: NB37 (VHH, not shown: small tags and cut ends)
VHH: QVQLQESGGGSVEAGGSLRLSCARSGWPYSTYSMNWFRQAPGKEREAVAGISSTMSGIIFAESKAGQFTISQDNAKNTVYLQMNNLKPEDTAIYYCAARRDYSLSSSSDDFDYWGQGTQVTVSS
binds: [6] | [19] | [7] | [8] | [9] | [10] | [11] | [12] | [13] | [14] | [16] | [17]
